PubChem BioAssay AID1224831 – NIAID | 2016
Screen: 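Genes that support or restrain LPS-induced TNF-alpha reporter activity in macrophage-like cells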 (follow-up of hits). Cells: human THP-1 B5 monocytic leukaemia cells carrying a TNF promoter luciferase reporter, made macrophage-like with PMA. Knock-down reagent: single siRNA against human genes, 50 nM. Time to read-out: about 68 h of knock-down, then 4 h LPS. Conditions: LPS (Salmonella minnesota, TLR-grade) at 10 ng/ml for 4 h; PMA 5 ng/ml present during knock-down. Detection: 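TNF promoter reporter read as dual luciferase ratio after 4 h LPS, normalised per plate to its median, given as replicate mean robust z-score per siRNA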. Reading the numbers: TNF reporter z-score: higher = stronger LPS-induced TNF reporter signal; z-score, median over gene's siRNAs: higher = stronger TNF reporter signal across the gene's siRNAs. Active means: 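Two-sided call: reduced or raised TNF reporter signal counts as active once mean z reaches about -1 or below, or about 1.5 or above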. Meaning of the calls: active = changed TNF reporter (either direction); inactive = little change.
This is an unselected part of about 3,500 reagents tested. Of all reagents, 731 (21%) are marked active. 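Active means either lowered or raised reporter signal; the gene-median score did not drive the per-siRNA calls.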 A number with no mark means an inactive call. Reagent sequences are not shown.

After knock-down of SMARCA1 (GeneID 6594) [SID315482880], the record shows TNF reporter z-score, replicate mean -0.02; z-score, median over gene's siRNAs 0.005.
SMARCA1 (GeneID 6594) [SID315482881] gave TNF reporter z-score, replicate mean 0.4; z-score, median over gene's siRNAs 0.005.
Silencing of SMARCA1 (GeneID 6594) [SID315482882] gave: TNF reporter z-score, replicate mean 1.57 (active); z-score, median over gene's siRNAs 0.005.
For SMARCA1 (GeneID 6594) [SID315482883], the entry reads TNF reporter z-score, replicate mean -1.48 (active); z-score, median over gene's siRNAs 0.005.
Against SMARCA1 (GeneID 6594) [SID315482884], the values are TNF reporter z-score, replicate mean -1.71 (active); z-score, median over gene's siRNAs 0.005.
Knock-down of SMARCA1 (GeneID 6594) [SID315482885] came out at: TNF reporter z-score, replicate mean 0.03; z-score, median over gene's siRNAs 0.005.
CSGALNACT1 (GeneID 55790) [SID315485889] gave TNF reporter z-score, replicate mean 1.31; z-score, median over gene's siRNAs -0.175.
Knock-down of CSGALNACT1 (GeneID 55790) [SID315485890] gave: TNF reporter z-score, replicate mean -0.39; z-score, median over gene's siRNAs -0.175.
After knock-down of CSGALNACT1 (GeneID 55790) [SID315485891] the results were TNF reporter z-score, replicate mean -1.02 (active); z-score, median over gene's siRNAs -0.175.
Knock-down of CSGALNACT1 (GeneID 55790) [SID315485892] came out at: TNF reporter z-score, replicate mean -0.41; z-score, median over gene's siRNAs -0.175.
CSGALNACT1 (GeneID 55790) [SID315485893] gave TNF reporter z-score, replicate mean 3.84 (active); z-score, median over gene's siRNAs -0.175.
Silencing of CSGALNACT1 (GeneID 55790) [SID315485894] gave: TNF reporter z-score, replicate mean 0.04; z-score, median over gene's siRNAs -0.175.

Already shown: an excerpt of the list.
SMARCA1 (GeneID 6594) [SID315482881] | TNF reporter z-score, replicate mean: 0.4; z-score, median over gene's siRNAs: 0.005
SMARCA1 (GeneID 6594) [SID315482882] | TNF reporter z-score, replicate mean: 1.57 (active); z-score, median over gene's siRNAs: 0.005

The listing continues.
PHKB (GeneID 5257) [SID315482670] scored TNF reporter z-score, replicate mean -0.46; z-score, median over gene's siRNAs -0.215.
After knock-down of PHKB (GeneID 5257) [SID315482671], the screen gave TNF reporter z-score, replicate mean -0.23; z-score, median over gene's siRNAs -0.215.
Against PHKB (GeneID 5257) [SID315482672], the values are TNF reporter z-score, replicate mean -0.2; z-score, median over gene's siRNAs -0.215.
Against PHKB (GeneID 5257) [SID315482673] the deposit lists TNF reporter z-score, replicate mean -0.05; z-score, median over gene's siRNAs -0.215.
For PHKB (GeneID 5257) [SID315482674] the deposit lists TNF reporter z-score, replicate mean -0.46; z-score, median over gene's siRNAs -0.215.
With knock-down of PHKB (GeneID 5257) [SID315482675], the screen gave TNF reporter z-score, replicate mean 0.17; z-score, median over gene's siRNAs -0.215.
WDR45 (GeneID 11152) [SID315483594] gave TNF reporter z-score, replicate mean 0.43; z-score, median over gene's siRNAs 0.58.
With knock-down of WDR45 (GeneID 11152) [SID315483595], the screen gave TNF reporter z-score, replicate mean 0.73; z-score, median over gene's siRNAs 0.58.
After knock-down of WDR45 (GeneID 11152) [SID315483596] the results were TNF reporter z-score, replicate mean -0.73; z-score, median over gene's siRNAs 0.58.
WDR45 (GeneID 11152) [SID315483597] scored TNF reporter z-score, replicate mean 0.06; z-score, median over gene's siRNAs 0.58.
After knock-down of WDR45 (GeneID 11152) [SID315483598], the record shows TNF reporter z-score, replicate mean 1.15; z-score, median over gene's siRNAs 0.58.
After knock-down of WDR45 (GeneID 11152) [SID315483599], the record shows TNF reporter z-score, replicate mean 2.26 (active); z-score, median over gene's siRNAs 0.58.
NTF4 (GeneID 4909) [SID315482628] gave TNF reporter z-score, replicate mean 0.62; z-score, median over gene's siRNAs 0.64.
With knock-down of NTF4 (GeneID 4909) [SID315482629], the screen gave TNF reporter z-score, replicate mean -0.05; z-score, median over gene's siRNAs 0.64.
With knock-down of NTF4 (GeneID 4909) [SID315482630], the screen gave TNF reporter z-score, replicate mean 1.15; z-score, median over gene's siRNAs 0.64.
NTF4 (GeneID 4909) [SID315482631] gave TNF reporter z-score, replicate mean 2.27 (active); z-score, median over gene's siRNAs 0.64.
With knock-down of NTF4 (GeneID 4909) [SID315482632], the screen gave TNF reporter z-score, replicate mean 0.66; z-score, median over gene's siRNAs 0.64.
After knock-down of NTF4 (GeneID 4909) [SID315482633] the results were TNF reporter z-score, replicate mean 0.16; z-score, median over gene's siRNAs 0.64.
